No constants are given. Whether binding was seen depends on the method and setting. Binding seen in cells or lysates may run through a third protein. These calls come from enrichment with a bait or labelling near it, and not all partners need be listed.
Biological target: T1, DDX24^WT, bait of the Co-IP followed by mass spectrometry (human) (UniProt Q9GZR7)
T1 sequence: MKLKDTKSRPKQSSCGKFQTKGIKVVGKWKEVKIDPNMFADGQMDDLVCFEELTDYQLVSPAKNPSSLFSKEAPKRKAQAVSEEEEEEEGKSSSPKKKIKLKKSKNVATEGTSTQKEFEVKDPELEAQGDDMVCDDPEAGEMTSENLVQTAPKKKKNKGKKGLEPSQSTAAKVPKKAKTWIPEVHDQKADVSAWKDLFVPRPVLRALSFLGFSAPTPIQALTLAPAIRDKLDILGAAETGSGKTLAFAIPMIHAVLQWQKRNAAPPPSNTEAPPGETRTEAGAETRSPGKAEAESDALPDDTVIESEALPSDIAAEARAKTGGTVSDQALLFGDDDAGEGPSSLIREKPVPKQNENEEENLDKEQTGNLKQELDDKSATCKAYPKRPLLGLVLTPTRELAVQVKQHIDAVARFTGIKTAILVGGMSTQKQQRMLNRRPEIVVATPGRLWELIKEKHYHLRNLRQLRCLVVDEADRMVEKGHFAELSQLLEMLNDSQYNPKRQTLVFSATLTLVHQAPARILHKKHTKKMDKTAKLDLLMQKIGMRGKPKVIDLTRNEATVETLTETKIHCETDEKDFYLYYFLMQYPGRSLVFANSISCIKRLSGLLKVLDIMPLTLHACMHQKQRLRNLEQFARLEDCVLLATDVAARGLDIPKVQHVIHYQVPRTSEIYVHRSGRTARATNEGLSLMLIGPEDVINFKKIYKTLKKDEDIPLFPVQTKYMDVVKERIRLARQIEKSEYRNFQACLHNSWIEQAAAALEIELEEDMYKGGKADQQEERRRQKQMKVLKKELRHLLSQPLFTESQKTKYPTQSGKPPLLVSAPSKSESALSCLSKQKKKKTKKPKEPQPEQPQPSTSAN
Assay: affinity purification with mass spectrometry; Co-IP with anti-DDX24 antibody (Pierce Co-Immunoprecipitation Kit), SDS-PAGE, silver stain, mass spectrometry; DDX24^WT and DDX24^E271K samples; cells not given

B1: FBL (protein, UniProt P22087 1-321)
chain: MKPGFSPRGGGFGGRGGFGDRGGRGGRGGFGGGRGRGGGFRGRGRGGGGGGGGGGGGGRGGGGFHSGGNRGRGRGGKRGNQSGKNVMVEPHRHEGVFICRGKEDALVTKNLVPGESVYGEKRVSISEGDDKIEYRAWNPFRSKLAAAILGGVDQIHIKPGAKVLYLGAASGTTVSHVSDIVGPDGLVYAVEFSHRSGRDLINLAKKRTNIIPVIEDARHPHKYRMLIAMVDVIFADVAQPDQTRIVALNAHTFLRNGGHFVISIKANCIDSTASAEAVFASEVKKMQQENMKPQEQLTLEPYERDHAVVVGVYRPPPKVKN
binding: binds

Source: PMC10496494
